Test results as given in ChEMBL document CHEMBL5674883, “The Heterochromatin Landscape in Migrating Cells and the Importance of H3K27me3 for Associated Transcriptome Alterations” (Cells, 2018).
Further values from the same series stand in other lists.

Sequences of proteins named here, by UniProt entry; tags and fusion partners are left off.
UniProt Q61188, whole entry: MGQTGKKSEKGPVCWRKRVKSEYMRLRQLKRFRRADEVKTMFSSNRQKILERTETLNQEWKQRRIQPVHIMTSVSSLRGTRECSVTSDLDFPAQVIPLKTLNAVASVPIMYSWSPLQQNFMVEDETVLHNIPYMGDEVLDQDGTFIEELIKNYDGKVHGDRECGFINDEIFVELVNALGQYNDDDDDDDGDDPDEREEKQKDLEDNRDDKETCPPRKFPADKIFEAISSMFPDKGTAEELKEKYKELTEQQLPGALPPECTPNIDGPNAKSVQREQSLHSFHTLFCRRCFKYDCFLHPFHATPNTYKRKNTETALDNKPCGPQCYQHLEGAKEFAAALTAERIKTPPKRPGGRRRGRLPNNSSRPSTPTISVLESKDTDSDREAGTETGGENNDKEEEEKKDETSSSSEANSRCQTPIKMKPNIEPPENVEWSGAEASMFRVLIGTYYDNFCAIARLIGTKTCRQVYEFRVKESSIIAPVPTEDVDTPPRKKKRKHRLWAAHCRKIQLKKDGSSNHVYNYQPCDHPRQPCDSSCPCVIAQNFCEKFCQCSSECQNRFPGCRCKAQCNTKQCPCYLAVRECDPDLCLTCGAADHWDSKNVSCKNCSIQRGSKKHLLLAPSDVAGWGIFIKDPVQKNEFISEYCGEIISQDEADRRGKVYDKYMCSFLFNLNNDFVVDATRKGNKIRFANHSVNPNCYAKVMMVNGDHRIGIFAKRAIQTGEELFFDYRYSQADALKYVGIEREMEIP

What was measured:
Assay type in all cases: cell-based
[1] = biological target: T1, RNA polymerase II (Mus musculus) (UniProt P08775+Q8CFI7+P97760+A0A3Q4L2S8+Q80UW8+P61219+P62488+Q923G2+P60898+O08740+Q63871+P62876); test: Inhibition of RNA polymerase II in mouse B16-F1 migrating cells assessed as fold change in Thoc1-RNA stability at 0.1 mM measured by ChIP-seq analysis relative to control cells
[2] = biological target: T1, RNA polymerase II (Mus musculus); test: Inhibition of RNA polymerase II in mouse B16-F1 migrating cells assessed as fold change in Npdc1-RNA stability at 0.1 mM measured by ChIP-seq analysis relative to control cells
[3] = biological target: T1, RNA polymerase II (Mus musculus); test: Inhibition of RNA polymerase II in mouse B16-F1 migrating cells assessed as fold change in Hnrnpu-RNA stability at 0.1 mM measured by ChIP-seq analysis relative to control cells
[4] = biological target: T1, RNA polymerase II (Mus musculus); test: Inhibition of RNA polymerase II in mouse B16-F1 migrating cells assessed as fold change in Ccni-RNA stability at 0.1 mM measured by ChIP-seq analysis relative to control cells
[5] = biological target: T1, RNA polymerase II (Mus musculus); test: Inhibition of RNA polymerase II in mouse B16-F1 migrating cells assessed as fold change in Ndfip2-RNA stability at 0.1 mM measured by ChIP-seq analysis relative to control cells
[6] = biological target: T1, RNA polymerase II (Mus musculus); test: Inhibition of RNA polymerase II in mouse B16-F1 migrating cells assessed as fold change in Hnrnpa3-RNA stability at 0.1 mM measured by ChIP-seq analysis relative to control cells
[7] = biological target: T1, RNA polymerase II (Mus musculus); test: Inhibition of RNA polymerase II in mouse B16-F1 migrating cells assessed as fold change in Strbp-RNA stability at 0.1 mM measured by ChIP-seq analysis relative to control cells
[8] = biological target: T1, RNA polymerase II (Mus musculus); test: Inhibition of RNA polymerase II in mouse B16-F1 migrating cells assessed as fold change in Pros1-RNA stability at 0.1 mM measured by ChIP-seq analysis relative to control cells
[9] = biological target: T1, RNA polymerase II (Mus musculus); test: Inhibition of RNA polymerase II in mouse B16-F1 migrating cells assessed as fold change in Dbf4-RNA stability at 0.1 mM measured by ChIP-seq analysis relative to control cells
[10] = biological target: T1, RNA polymerase II (Mus musculus); test: Inhibition of RNA polymerase II in mouse B16-F1 migrating cells assessed as fold change in Top2a-RNA stability at 0.1 mM measured by ChIP-seq analysis relative to control cells
[11] = biological target: T1, RNA polymerase II (Mus musculus); test: Inhibition of RNA polymerase II in mouse B16-F1 migrating cells assessed as fold change in Prr13-RNA stability at 0.1 mM measured by ChIP-seq analysis relative to control cells
[12] = biological target: T1, RNA polymerase II (Mus musculus); test: Inhibition of RNA polymerase II in mouse B16-F1 migrating cells assessed as fold change in Fubp3-RNA stability at 0.1 mM measured by ChIP-seq analysis relative to control cells
[13] = biological target: T1, RNA polymerase II (Mus musculus); test: Inhibition of RNA polymerase II in mouse B16-F1 migrating cells assessed as fold change in Dbt-RNA stability at 0.1 mM measured by ChIP-seq analysis relative to control cells
[14] = biological target: T1, RNA polymerase II (Mus musculus); test: Inhibition of RNA polymerase II in mouse B16-F1 migrating cells assessed as fold change in Csde1-RNA stability at 0.1 mM measured by ChIP-seq analysis relative to control cells
[15] = biological target: T1, RNA polymerase II (Mus musculus); test: Inhibition of RNA polymerase II in mouse B16-F1 migrating cells assessed as fold change in Rpl28-RNA stability at 0.1 mM measured by ChIP-seq analysis relative to control cells
[16] = biological target: T1, RNA polymerase II (Mus musculus); test: Inhibition of RNA polymerase II in mouse B16-F1 migrating cells assessed as fold change in 1700003F12Rik-RNA stability at 0.1 mM measured by ChIP-seq analysis relative to control cells
[17] = biological target: T1, RNA polymerase II (Mus musculus); test: Inhibition of RNA polymerase II in mouse B16-F1 migrating cells assessed as fold change in Slc35a3-RNA stability at 0.1 mM measured by ChIP-seq analysis relative to control cells
[18] = biological target: T1, RNA polymerase II (Mus musculus); test: Inhibition of RNA polymerase II in mouse B16-F1 migrating cells assessed as fold change in Map1lc3a-RNA stability at 0.1 mM measured by ChIP-seq analysis relative to control cells
[19] = biological target: T1, RNA polymerase II (Mus musculus); test: Inhibition of RNA polymerase II in mouse B16-F1 migrating cells assessed as fold change in Appl1-RNA stability at 0.1 mM measured by ChIP-seq analysis relative to control cells
[20] = biological target: T1, RNA polymerase II (Mus musculus); test: Inhibition of RNA polymerase II in mouse B16-F1 migrating cells assessed as fold change in Herc6-RNA stability at 0.1 mM measured by ChIP-seq analysis relative to control cells
[21] = biological target: T1, RNA polymerase II (Mus musculus); test: Inhibition of RNA polymerase II in mouse B16-F1 migrating cells assessed as fold change in Rpl24-RNA stability at 0.1 mM measured by ChIP-seq analysis relative to control cells
[22] = biological target: Histone-lysine N-methyltransferase EZH2 (Mus musculus) (UniProt Q61188); test: Inhibition of EZH2 in mouse B16-F1 migrating cells assessed as fold change in H3K27me3-buffered regulated Gm44386-mRNA expression at 3 uM measured by ChIP-seq analysis relative to control cells
[23] = biological target: Histone-lysine N-methyltransferase EZH2 (Mus musculus) (UniProt Q61188); test: Inhibition of EZH2 in mouse B16-F1 migrating cells assessed as fold change in H3K27me3-buffered regulated Ndst3-mRNA expression at 3 uM measured by ChIP-seq analysis relative to control cells
[24] = biological target: Histone-lysine N-methyltransferase EZH2 (Mus musculus) (UniProt Q61188); test: Inhibition of EZH2 in mouse B16-F1 migrating cells assessed as fold change in H3K27me3-buffered regulated G2e3-mRNA expression at 3 uM measured by ChIP-seq analysis relative to control cells
[25] = biological target: Histone-lysine N-methyltransferase EZH2 (Mus musculus) (UniProt Q61188); test: Inhibition of EZH2 in mouse B16-F1 migrating cells assessed as fold change in H3K27me3-buffered regulated Kcnj9-mRNA expression at 3 uM measured by ChIP-seq analysis relative to control cells
[26] = biological target: Histone-lysine N-methyltransferase EZH2 (Mus musculus) (UniProt Q61188); test: Inhibition of EZH2 in mouse B16-F1 migrating cells assessed as fold change in H3K27me3-independent regulated Zfp654-mRNA expression at 3 uM measured by ChIP-seq analysis relative to control cells
[27] = biological target: Histone-lysine N-methyltransferase EZH2 (Mus musculus) (UniProt Q61188); test: Inhibition of EZH2 in mouse B16-F1 migrating cells assessed as fold change in H3K27me3-buffered regulated Rlf-mRNA expression at 3 uM measured by ChIP-seq analysis relative to control cells
[28] = biological target: Histone-lysine N-methyltransferase EZH2 (Mus musculus) (UniProt Q61188); test: Inhibition of EZH2 in mouse B16-F1 migrating cells assessed as fold change in H3K27me3-buffered regulated Bag3-mRNA expression at 3 uM measured by ChIP-seq analysis relative to control cells
[29] = biological target: Histone-lysine N-methyltransferase EZH2 (Mus musculus) (UniProt Q61188); test: Inhibition of EZH2 in mouse B16-F1 migrating cells assessed as fold change in H3K27me3-buffered regulated Gm2115-mRNA expression at 3 uM measured by ChIP-seq analysis relative to control cells
[30] = biological target: Histone-lysine N-methyltransferase EZH2 (Mus musculus) (UniProt Q61188); test: Inhibition of EZH2 in mouse B16-F1 migrating cells assessed as fold change in H3K27me3-buffered regulated Irs1-mRNA expression at 3 uM measured by ChIP-seq analysis relative to control cells

OC[C@H]1O[C@@H](n2cnc3cc(Cl)c(Cl)cc32)[C@H](O)[C@@H]1O
log2FC [1]: -0.54
log2FC [2]: 0.46
log2FC [3]: -0.6
log2FC [4]: 0.56
log2FC [5]: -0.39
log2FC [6]: -0.52
log2FC [7]: -0.57
log2FC [8]: -0.65
log2FC [9]: -0.46
log2FC [10]: -0.55
log2FC [11]: 0.47
log2FC [12]: -0.8
log2FC [13]: -0.86
log2FC [14]: -0.73
log2FC [15]: 0.58
log2FC [16]: 0.87
log2FC [17]: -0.53
log2FC [18]: 0.63
log2FC [19]: -0.67
log2FC [20]: -0.66
log2FC [21]: 0.57

CCCc1cc(C)[nH]c(=O)c1CNC(=O)c1cc(-c2ccnc(N3CCN(C)CC3)c2)cc2c1cnn2C(C)C
log2FC [22]: 0.68
log2FC [23]: -0.57
log2FC [24]: -0.42
log2FC [25]: 1.07
log2FC [26]: -0.43
log2FC [27]: -0.39
log2FC [28]: 0.47
log2FC [29]: 0.78
log2FC [30]: -0.63
